Article PMC11339035
No constants are given. Whether binding was seen depends on the method and setting. Binding seen in cells or lysates may run through a third protein. Some binding calls cover weakened binding; strength is not graded here.

Chains of the proteins cited; added tags and fusions are not shown.
UniProt Q91VJ5: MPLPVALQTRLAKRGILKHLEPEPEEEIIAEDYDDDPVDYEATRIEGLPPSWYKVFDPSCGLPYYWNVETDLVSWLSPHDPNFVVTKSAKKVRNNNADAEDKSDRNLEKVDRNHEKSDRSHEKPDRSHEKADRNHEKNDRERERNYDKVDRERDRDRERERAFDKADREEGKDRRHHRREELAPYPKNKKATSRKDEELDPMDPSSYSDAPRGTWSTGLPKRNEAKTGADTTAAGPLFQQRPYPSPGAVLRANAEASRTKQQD
UniProt Q91YD9: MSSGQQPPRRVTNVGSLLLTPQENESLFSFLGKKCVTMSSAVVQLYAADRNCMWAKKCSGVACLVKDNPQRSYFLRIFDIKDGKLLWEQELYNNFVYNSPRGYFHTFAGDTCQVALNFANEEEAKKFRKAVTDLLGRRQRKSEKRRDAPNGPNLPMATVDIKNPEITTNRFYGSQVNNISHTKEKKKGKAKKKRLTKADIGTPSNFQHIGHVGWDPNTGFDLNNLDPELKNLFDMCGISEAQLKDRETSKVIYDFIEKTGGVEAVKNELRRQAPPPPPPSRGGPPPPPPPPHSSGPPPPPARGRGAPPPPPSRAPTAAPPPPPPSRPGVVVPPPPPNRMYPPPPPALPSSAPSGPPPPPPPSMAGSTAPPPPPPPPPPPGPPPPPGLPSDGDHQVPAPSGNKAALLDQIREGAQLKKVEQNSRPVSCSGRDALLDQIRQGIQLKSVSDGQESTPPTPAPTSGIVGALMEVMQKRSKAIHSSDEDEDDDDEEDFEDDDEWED

Target: Polyglutamine-binding protein 1 (PQBP1), endogenous in mouse brain and hippocampal neurons (mouse (endogenous in brain and hippocampal neurons)) (UniProt Q91VJ5)
Assay: co-IP; cytoplasmic proteins from brains of 8-10-day-old C57BL/6 mice; anti-PQBP1 polyclonal antibody or pre-immunized rabbit serum, protein A beads, 4 °C; Western blot

binding: binds
Substance: neural Wiskott-Aldrich syndrome protein (N-WASP), endogenous in mouse brain and hippocampal neurons (from UniProt Q91YD9 1-501)
